In article PMC4132743 (Nucleic Acids Research, 2014):

How the values were obtained:
Assay in all cases: fluorescence polarization
Settings in all cases: Buffer A: 20 mM Tris-HCl pH 7.5, 40 mM NaCl, 5% v/v glycerol, 20 C; FPA 200 nM 5'-FAM DNA, Hill fit; recombinant protein; residues 1-179; protein details: His-MBP removed by TEV; label: 5'-FAM; single-stranded DNA
[1] = target: T1, DnaT R146A (Escherichia coli K12) (UniProt P0A8J2)
T1 sequence (looked up): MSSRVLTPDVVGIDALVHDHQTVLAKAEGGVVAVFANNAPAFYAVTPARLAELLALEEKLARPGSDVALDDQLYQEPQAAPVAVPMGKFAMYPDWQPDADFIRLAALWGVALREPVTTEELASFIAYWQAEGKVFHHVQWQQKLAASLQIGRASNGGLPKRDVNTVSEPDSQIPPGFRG

[2] = target: T2, DnaT Y127A (Escherichia coli K12) (UniProt P0A8J2)
T2 sequence (looked up): T1 sequence (looked up) with Y127A, A146R

[3] = target: T3, DnaT F135A (Escherichia coli K12) (UniProt P0A8J2)
T3 sequence (looked up): T1 sequence (looked up) with F135A, A146R

[4] = target: T4, DnaT W128A (Escherichia coli K12) (UniProt P0A8J2)
T4 sequence (looked up): T1 sequence (looked up) with W128A, A146R

[5] = target: T5, DnaT K133A (Escherichia coli K12) (UniProt P0A8J2)
T5 sequence (looked up): T1 sequence (looked up) with K133A, A146R

[6] = target: T6, DnaT K143A (Escherichia coli K12) (UniProt P0A8J2)
T6 sequence (looked up): T1 sequence (looked up) with K143A, A146R

Measured: binding result

TTTTTTTTTTTTTTTTTTTTTTTTTTTTTT [5F-dT30]
binds more weakly: [1] | [2] | [3] | [4] | [5] | [6]

Residue numbers refer to the chain shown, from its start. The comparison behind a weaker result is the experiment's own reference, which may not be listed here. Protein sequences can lack the tags named with them.
